In publication PMC10681309:
No constants are given. Whether binding was seen depends on the method and setting. Binding seen in cells or lysates may run through a third protein. Some binding calls cover weakened binding; strength is not graded here. For part of these data: Sequences can lack the tags named with a protein.

B1: full-length GST-MDA5 (protein, UniProt Q9BYX4 1-1025)
chain: MSNGYSTDENFRYLISCFRARVKMYIQVEPVLDYLTFLPAEVKEQIQRTVATSGNMQAVELLLSTLEKGVWHLGWTREFVEALRRTGSPLAARYMNPELTDLPSPSFENAHDEYLQLLNLLQPTLVDKLLVRDVLDKCMEEELLTIEDRNRIAAAENNGNESGVRELLKRIVQKENWFSAFLNVLRQTGNNELVQELTGSDCSESNAEIENLSQVDGPQVEEQLLSTTVQPNLEKEVWGMENNSSESSFADSSVVSESDTSLAEGSVSCLDESLGHNSNMGSDSGTMGSDSDEENVAARASPEPELQLRPYQMEVAQPALEGKNIIICLPTGSGKTRVAVYIAKDHLDKKKKASEPGKVIVLVNKVLLVEQLFRKEFQPFLKKWYRVIGLSGDTQLKISFPEVVKSCDIIISTAQILENSLLNLENGEDAGVQLSDFSLIIIDECHHTNKEAVYNNIMRHYLMQKLKNNRLKKENKPVIPLPQILGLTASPGVGGATKQAKAEEHILKLCANLDAFTIKTVKENLDQLKNQIQEPCKKFAIADATREDPFKEKLLEIMTRIQTYCQMSPMSDFGTQPYEQWAIQMEKKAAKEGNRKERVCAEHLRKYNEALQINDTIRMIDAYTHLETFYNEEKDKKFAVIEDDSDEGGDDEYCDGDEDEDDLKKPLKLDETDRFLMTLFFENNKMLKRLAENPEYENEKLTKLRNTIMEQYTRTEESARGIIFTKTRQSAYALSQWITENEKFAEVGVKAHHLIGAGHSSEFKPMTQNEQKEVISKFRTGKINLLIATTVAEEGLDIKECNIVIRYGLVTNEIAMVQARGRARADESTYVLVAHSGSGVIEHETVNDFREKMMYKAIHCVQNMKPEEYAHKILELQMQSIMEKKMKTKRNIAKHYKNNPSLITFLCKNCSVLACSGEDIHVIEKMHHVNMTPEFKELYIVRENKALQKKCADYQINGEIICKCGQAWGTMMVHKGLDLPCLKIRNFVVVFKNNSTKKQYKKWVELPITFPNLDYSECCLFSDED
B2: HA-TRIM4 (enzyme, UniProt Q9C037 1-500)
chain: MEAEDIQEELTCPICLDYFQDPVSIECGHNFCRGCLHRNWAPGGGPFPCPECRHPSAPAALRPNWALARLTEKTQRRRLGPVPPGLCGRHWEPLRLFCEDDQRPVCLVCRESQEHQTHAMAPIDEAFESYRTGNFDIHVDEWKRRLIRLLLYHFKQEEKLLKSQRNLVAKMKKVMHLQDVEVKNATQWKDKIKSQRMRISTEFSKLHNFLVEEEDLFLQRLNKEEEETKKKLNENTLKLNQTIASLKKLILEVGEKSQAPTLELLQNPKEVLTRSEIQDVNYSLEAVKVKTVCQIPLMKEMLKRFQVAVNLAEDTAHPKLVFSQEGRYVKNTASASSWPVFSSAWNYFAGWRNPQKTAFVERFQHLPCVLGKNVFTSGKHYWEVESRDSLEVAVGVCREDVMGITDRSKMSPDVGIWAIYWSAAGYWPLIGFPGTPTQQEPALHRVGVYLDRGTGNVSFYSAVDGVHLHTFSCSSVSRLRPFFWLSPLASLVIPPVTDRK
B3: endogenous MDA5 (protein, UniProt Q9BYX4 1-1025)
chain: B1 chain

What was measured:
[1] = target: GFP-nsp8 (SARS-CoV-2 nonstructural protein 8) (SARS-CoV-2) (UniProt P0DTD1); test: co-IP
[2] = target: nsp8 expressed from the Spike-deleted SARS-CoV-2 replicon (SARS-CoV-2) (UniProt P0DTD1); test: cross-linking + co-IP

| Binder | binding [1] | binding [2] |
| --- | --- | --- |
| B1 | binds | – |
| B2 | binds | – |
| B3 | – | binds |
